Data reported in doi:10.64898/2025.12.16.694471.
No constants are given. Whether binding was seen depends on the method and setting. Binding seen in cells or lysates may run through a third protein. Binding calls can cover weak binding; strength is not graded here. Where a sequence is shown, tags or fusion partners need not be part of it.

Target: T1, FLAG-Piwi (Drosophila melanogaster) (UniProt Q9VKM1)
T1 sequence: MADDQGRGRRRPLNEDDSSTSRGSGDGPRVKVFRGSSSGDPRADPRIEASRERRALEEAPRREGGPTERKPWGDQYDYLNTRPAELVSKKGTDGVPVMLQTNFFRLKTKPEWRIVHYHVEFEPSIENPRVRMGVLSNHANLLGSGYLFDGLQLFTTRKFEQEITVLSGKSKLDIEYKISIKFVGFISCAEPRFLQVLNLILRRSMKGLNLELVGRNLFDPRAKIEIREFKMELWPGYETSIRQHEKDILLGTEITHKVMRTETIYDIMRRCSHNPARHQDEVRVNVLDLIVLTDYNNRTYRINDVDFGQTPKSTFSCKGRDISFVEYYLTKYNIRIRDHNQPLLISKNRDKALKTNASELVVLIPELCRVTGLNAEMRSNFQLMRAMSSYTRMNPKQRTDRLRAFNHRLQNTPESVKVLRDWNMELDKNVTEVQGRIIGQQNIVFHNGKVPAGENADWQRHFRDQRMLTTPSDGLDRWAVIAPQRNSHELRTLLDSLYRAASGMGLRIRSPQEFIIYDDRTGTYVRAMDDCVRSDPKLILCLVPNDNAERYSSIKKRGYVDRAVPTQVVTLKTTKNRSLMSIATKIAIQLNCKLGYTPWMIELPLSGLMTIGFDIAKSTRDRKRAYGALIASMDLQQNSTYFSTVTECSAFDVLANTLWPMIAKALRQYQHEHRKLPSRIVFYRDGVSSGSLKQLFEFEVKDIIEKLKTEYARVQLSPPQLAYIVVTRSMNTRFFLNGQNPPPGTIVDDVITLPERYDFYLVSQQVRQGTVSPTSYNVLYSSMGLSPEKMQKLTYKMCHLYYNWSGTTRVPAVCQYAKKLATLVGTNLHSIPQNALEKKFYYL
Assay: co-IP

With “TEs are up-1 (TEsup-1; CG31510) (from UniProt Q9VBX4)” the binding was “binds”.
